PubChem BioAssay AID1508597 – Cure First – 2020

Aim: 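Genes whose silencing sensitises or protects ovarian cancer cells against rucaparib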 (primary screen)
System: human ovarian carcinoma lines grown from tumours: OCI-P5x (papillary serous) and OCI-C5x (clear cell)
Reagent: siRNA pool against human genes, 1.25 pmol siRNA per well
Timing: 72 h or 96 h, depending on the cell culture
Treatment: rucaparib 20 µM (about IC30) or vehicle, present until read-out
Read-out: 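Luminescent ATP-based viability assay read 72 or 96 h after transfection, depending on culture, given as normalised percent viability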
Reading the numbers: viability, normalised: higher = more viable cells remaining
Hit rule: 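Active when normalised viability falls below 80 percent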
Calls: active = viability under 80%; inactive = viability 80% or more
This is an unselected part of about 2,100 reagents tested. 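Calls flag viability under 80% in either arm, not effects specific to rucaparib; the reference for percent is not stated.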 Not given: the 100% reference.

gene	rucaparib or vehicle	cell line	technical replicate	viability, normalised (%)	call
EDC4 (GeneID 23644)	Rucaparib	OCI-C5x (clear cell)	1	57.4	active
EDC4 (GeneID 23644)	Rucaparib	OCI-C5x (clear cell)	2	44.9	active
EDC4 (GeneID 23644)	Rucaparib	OCI-C5x (clear cell)	3	44.5	active
EDC4 (GeneID 23644)	Rucaparib	OCI-P5x (serous)	1	68.1	active
EDC4 (GeneID 23644)	Rucaparib	OCI-P5x (serous)	2	76.1	active
EDC4 (GeneID 23644)	Rucaparib	OCI-P5x (serous)	3	83.8	inactive
EDC4 (GeneID 23644)	Vehicle	OCI-C5x (clear cell)	1	61.3	active
EDC4 (GeneID 23644)	Vehicle	OCI-C5x (clear cell)	2	74.5	active
EDC4 (GeneID 23644)	Vehicle	OCI-C5x (clear cell)	3	54.4	active
EDC4 (GeneID 23644)	Vehicle	OCI-P5x (serous)	1	75.7	active
EDC4 (GeneID 23644)	Vehicle	OCI-P5x (serous)	2	80.1	inactive
EDC4 (GeneID 23644)	Vehicle	OCI-P5x (serous)	3	80.7	inactive
RALY (GeneID 22913)	Rucaparib	OCI-C5x (clear cell)	1	40.3	active
RALY (GeneID 22913)	Rucaparib	OCI-C5x (clear cell)	2	50	active
RALY (GeneID 22913)	Rucaparib	OCI-C5x (clear cell)	3	40.8	active
RALY (GeneID 22913)	Rucaparib	OCI-P5x (serous)	1	72.3	active
RALY (GeneID 22913)	Rucaparib	OCI-P5x (serous)	2	77.8	active
RALY (GeneID 22913)	Rucaparib	OCI-P5x (serous)	3	68.9	active
RALY (GeneID 22913)	Vehicle	OCI-C5x (clear cell)	1	35.9	active
RALY (GeneID 22913)	Vehicle	OCI-C5x (clear cell)	2	46.4	active
RALY (GeneID 22913)	Vehicle	OCI-C5x (clear cell)	3	56.7	active
RALY (GeneID 22913)	Vehicle	OCI-P5x (serous)	1	54.6	active
RALY (GeneID 22913)	Vehicle	OCI-P5x (serous)	2	72.4	active
RALY (GeneID 22913)	Vehicle	OCI-P5x (serous)	3	60.7	active

Look-ups from above:
RALY (GeneID 22913), rucaparib or vehicle Vehicle, cell line OCI-P5x (serous), technical replicate 2, call: active
RALY (GeneID 22913), rucaparib or vehicle Rucaparib, cell line OCI-C5x (clear cell), technical replicate 1, call = active
